The record followed here is publication PMC11814294.

Sequences of proteins named here, by UniProt entry; tags and fusion partners are left off.
UniProt Q94BT6: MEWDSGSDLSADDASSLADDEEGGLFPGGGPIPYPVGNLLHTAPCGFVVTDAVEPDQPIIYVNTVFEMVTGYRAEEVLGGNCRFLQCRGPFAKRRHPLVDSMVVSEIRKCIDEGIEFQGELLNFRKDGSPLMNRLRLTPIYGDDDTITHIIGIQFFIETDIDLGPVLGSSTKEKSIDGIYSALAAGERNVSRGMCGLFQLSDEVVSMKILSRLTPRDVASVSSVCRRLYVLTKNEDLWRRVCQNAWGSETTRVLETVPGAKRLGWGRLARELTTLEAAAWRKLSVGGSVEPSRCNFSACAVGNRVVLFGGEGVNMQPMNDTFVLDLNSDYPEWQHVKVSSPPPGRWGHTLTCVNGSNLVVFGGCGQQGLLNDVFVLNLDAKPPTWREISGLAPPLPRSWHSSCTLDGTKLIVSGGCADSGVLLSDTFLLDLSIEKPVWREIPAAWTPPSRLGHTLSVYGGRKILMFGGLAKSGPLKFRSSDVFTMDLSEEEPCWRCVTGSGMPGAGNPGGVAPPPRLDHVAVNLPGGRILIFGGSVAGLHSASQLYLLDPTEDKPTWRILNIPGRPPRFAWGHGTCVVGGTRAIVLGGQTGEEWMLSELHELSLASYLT
UniProt Q9FTA2: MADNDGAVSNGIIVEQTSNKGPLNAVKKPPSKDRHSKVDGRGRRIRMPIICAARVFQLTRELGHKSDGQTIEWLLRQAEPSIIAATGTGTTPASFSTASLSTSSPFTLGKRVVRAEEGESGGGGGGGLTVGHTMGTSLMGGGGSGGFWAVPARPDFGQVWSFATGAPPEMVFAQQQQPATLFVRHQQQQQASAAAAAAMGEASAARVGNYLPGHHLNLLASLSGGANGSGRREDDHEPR

Results are given in words; binding and its absence hold for the method and conditions named. For some assays here: In cells and extracts the contact can be indirect. Some results given as binding are weak or reduced against the parent protein; the word gives no strength. For some assays here: Sequences can lack the tags named with a protein.

The target in assay [1] is ZTL, Gal4 DNA-binding domain fusion (Arabidopsis thaliana) (UniProt Q94BT6). Description: yeast three-hybrid; pGADT7-CHE with BD-ZTL or BD-TOC1 in pBridge, which also expresses HaRxL10 or YFP (control) from PMet; Gold strain; selection on SD/-Leu-Trp-Met-His with 3-AT.
Assay [2] has as its target T1, TIMING OF CAB EXPRESSION 1 (TOC1), Gal4 DNA-binding domain fusion (Arabidopsis thaliana) (UniProt Q9LKL2).
T1 sequence: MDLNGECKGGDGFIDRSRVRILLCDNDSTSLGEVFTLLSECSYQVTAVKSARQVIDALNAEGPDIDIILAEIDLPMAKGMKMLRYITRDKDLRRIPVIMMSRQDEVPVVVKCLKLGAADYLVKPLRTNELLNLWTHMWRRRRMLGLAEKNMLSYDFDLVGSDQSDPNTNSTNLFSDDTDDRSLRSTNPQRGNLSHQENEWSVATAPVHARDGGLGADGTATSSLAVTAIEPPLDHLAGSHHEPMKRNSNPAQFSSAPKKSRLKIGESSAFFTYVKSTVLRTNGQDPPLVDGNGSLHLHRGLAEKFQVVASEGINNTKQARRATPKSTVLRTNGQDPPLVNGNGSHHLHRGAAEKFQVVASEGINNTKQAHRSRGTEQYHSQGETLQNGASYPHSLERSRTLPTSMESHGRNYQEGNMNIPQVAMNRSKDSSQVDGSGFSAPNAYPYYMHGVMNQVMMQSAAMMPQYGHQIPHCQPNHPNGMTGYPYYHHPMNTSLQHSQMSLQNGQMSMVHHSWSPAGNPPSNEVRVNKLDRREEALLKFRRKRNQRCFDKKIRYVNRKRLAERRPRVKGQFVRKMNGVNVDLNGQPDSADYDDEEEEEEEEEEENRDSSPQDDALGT
The description is as above.

Assay [3] concerns the target ZTL, Gal4 DNA-binding domain fusion (Arabidopsis thaliana) (UniProt Q94BT6). In words: two-hybrid; single tests: both constructs (pGADT7-GW and pGBKT7-GW) transformed into AH109; selection on SD/-Leu-Trp-His-Ade.
Assay [4] has as its target T1, TIMING OF CAB EXPRESSION 1 (TOC1), Gal4 DNA-binding domain fusion (Arabidopsis thaliana). The description is as above.
Assay [5] concerns the target cYFP-ZTL (Arabidopsis thaliana) (UniProt Q94BT6). Description: split reporter; BiFC: cYFP and nYFP fusions transiently co-expressed in N. benthamiana leaves for two days, confocal microscopy.

On to “CCA1 HIKING EXPEDITION (CHE), full length, Gal4 activation domain fusion (from UniProt Q9FTA2 1-239)”, for which the binding entry in assay [1], in assay [2], in assay [3] and in assay [4] was “binds” throughout.
Take nYFP-CHE (from UniProt Q9FTA2 1-239): the binding result in assay [5] is given as “binds”.
